Measured data: PubChem BioAssay AID1224826 (NIAID, 2016)
The deposit covers about 17,000 reagents; shown is a random part of them. Of all reagents, about 1,110 (6.6%) are marked active. 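Active means lowered or raised reporter signal; replicate intensities are raw and not normalised per plate.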 Entries without a mark were called inactive.

- Screen: 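Knock-downs that raise or lower Tnf reporter signal after endotoxin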 (primary screen)
- Cells: RAW264.7 G9 macrophages from mouse bearing reporters for p65 (GFP) and the Tnf promoter (mCherry)
- Reagent: siRNA pool against mouse genes, 100 nM
- Duration: 16 h of LPS stimulation, after 2 days of siRNA transfection
- Conditions: bacterial lipopolysaccharide (Salmonella minnesota R595), 10 ng/ml
- Detection: 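Nuclear mCherry signal of the Tnf promoter reporter measured by imaging after background removal, scaled to each plate median and turned into robust z-scores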
- Direction: Tnf reporter robust z-score: higher = stronger Tnf promoter reporter signal after LPS; Tnf reporter intensity: higher = stronger Tnf promoter reporter signal
- Hit rule: 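a well counts as active at a score of -1.3 or below (Tlr4 knock-down control median) or above 3 (raised signal); controls and wells holding fewer than 50 cells are excluded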
- Meaning of the calls: active = Tnf reporter clearly lowered or raised; inactive = no clear change in Tnf reporter

target gene,Tnf reporter robust z-score,fewer than 50 cells in well,"Tnf reporter intensity, replicate 1","Tnf reporter intensity, replicate 2"
Gnl3,1.64,enough cells in well,253,276
Rtl5,-0.13,enough cells in well,169,141
Ranbp2,-0.03,enough cells in well,330,187
Pimreg,0.32,enough cells in well,175,174
Lactb2,2.61,enough cells in well,374,238
Arid3b,0.47,enough cells in well,185,208
Sync,0.63,enough cells in well,142,49.4
5730596B20Rik,-1.1,enough cells in well,112,81.3
Gpr171,-0.03,enough cells in well,213,291
Tcf15,-0.86,enough cells in well,212,66.1
Rab5b,-0.6,enough cells in well,278,142
Slc1a7,1.92,enough cells in well,149,186
Loxhd1,,fewer than 50 cells per well; well left out of calls,291,57.2
Slc25a10,0.93,enough cells in well,101,167
Ndufa1,-0.59,enough cells in well,215,66.7
Pcyox1l,1.47,enough cells in well,234,280
Zfp397,-1.06,enough cells in well,33.1,80.1
Spmip10,1.62,enough cells in well,359,118
Mrps22,-1.69 (active),enough cells in well,98.6,53.7
Scrg1,,fewer than 50 cells per well; well left out of calls,38.9,163
Dnajc10,-0.53,enough cells in well,167,86
Tm4sf1,0.07,enough cells in well,255,127
Cd300lb,0.72,enough cells in well,272,255
Spdye4a,,fewer than 50 cells per well; well left out of calls,145,76.9
Trim13,1.02,enough cells in well,273,351
Fbl,0.91,enough cells in well,305,220
A730085E03Rik,-0.58,enough cells in well,127,135
Tmc2,,fewer than 50 cells per well; well left out of calls,38,38.9
Cd200r1,0.21,enough cells in well,309,198
Cep135,0.94,enough cells in well,173,174
Slc25a14,1.37,enough cells in well,119,179
Sdc3,0.33,enough cells in well,189,95
Arcn1,,fewer than 50 cells per well; well left out of calls,0,8.96
Tmem208,0.06,enough cells in well,218,54.9
Ints14,,fewer than 50 cells per well; well left out of calls,108,47
Lysmd2,,fewer than 50 cells per well; well left out of calls,191,36.3
Ptdss2,-0.71,enough cells in well,59.1,93.6
Opn4,0.66,enough cells in well,346,104
Tjap1,-0.76,enough cells in well,212,52.8
Ccnt1,-0.8,enough cells in well,189,144

Part of the list above in another layout.
Tcf15 — Tnf reporter robust z-score = -0.86; fewer than 50 cells in well = enough cells in well; Tnf reporter intensity, replicate 1 = 212; Tnf reporter intensity, replicate 2 = 66.1
Rab5b — Tnf reporter robust z-score = -0.6; fewer than 50 cells in well = enough cells in well; Tnf reporter intensity, replicate 1 = 278; Tnf reporter intensity, replicate 2 = 142
Slc1a7 — Tnf reporter robust z-score = 1.92; fewer than 50 cells in well = enough cells in well; Tnf reporter intensity, replicate 1 = 149; Tnf reporter intensity, replicate 2 = 186
Loxhd1 — fewer than 50 cells in well = fewer than 50 cells per well; well left out of calls; Tnf reporter intensity, replicate 1 = 291; Tnf reporter intensity, replicate 2 = 57.2
Slc25a10 — Tnf reporter robust z-score = 0.93; fewer than 50 cells in well = enough cells in well; Tnf reporter intensity, replicate 1 = 101; Tnf reporter intensity, replicate 2 = 167
Ndufa1 — Tnf reporter robust z-score = -0.59; fewer than 50 cells in well = enough cells in well; Tnf reporter intensity, replicate 1 = 215; Tnf reporter intensity, replicate 2 = 66.7
